The target in assay [1] is H3 (A111C), untagged (budding yeast) (UniProt P61830). In words: cross-linking; ex vivo cysteine cross-linking in crude yeast lysate or on isolated chromatin pellet; DTNB (also bBBr, BMOE) for 1 hour on ice in 25 mM sodium phosphate pH 7.0, 100 mM KCl, 2.5 mM MgCl2, 0.25% TritonX-100; SDS-PAGE without reducing agent, Western blot with anti-HA (H3) or anti-Myc (Cse4).
The target of assay [2] is yeast histone H3-Cys, full-length, N-terminally tagged with Avitag (budding yeast) (UniProt P61830). Description: cross-linking; spontaneous disulfide cross-link between introduced cysteines in E. coli; H3-Cys and Cse4-Cys expressed together or separately; bacterial culture resuspended in SDS-PAGE loading buffer with and without beta-mercaptoethanol, 15% SDS-PAGE, Western blot (Streptavidin-HRP for H3-Cys, anti-Penta-His for Cse4-Cys); dimers resolved by beta-mercaptoethanol.

The chains behind the UniProt entries cited, without tags or fusion partners. Where a name states a change or a piece, a line headed by the entry shows the natural chain unless it says otherwise. A line that says so, or that is headed by a name, gives the form on record, which may keep a tag or linker.
histone fold domain of Cse4-Cys (D150-end), N-terminally tagged with 6xHis (P36012, form named): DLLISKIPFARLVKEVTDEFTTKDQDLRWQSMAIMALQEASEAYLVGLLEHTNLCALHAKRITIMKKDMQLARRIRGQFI

Results are given in words; binding and its absence hold for the method and conditions named. In cells and extracts the contact can be indirect. Some entries that bind do so weakly or less than the wild type.

Turning to “Cse4-Myc3 (L204C) (from UniProt P36012 1-229)”, the binding result in assay [1] is recorded as “no binding”.

As to “histone fold domain of Cse4-Cys (D150-end), N-terminally tagged with 6xHis (from UniProt P36012 150-229) (domain or fragment)”, the binding result in assay [2] was “binds”.

The values are drawn from paper PMC3364953.
